This note sets out measurements from PMC11573612 (Molecular Therapy, 2024).

Protein sequences, listed by entry. Tags and fused reporters are not part of them. Residues count along the entry.
UniProt Q9NZQ7, residues 19-290: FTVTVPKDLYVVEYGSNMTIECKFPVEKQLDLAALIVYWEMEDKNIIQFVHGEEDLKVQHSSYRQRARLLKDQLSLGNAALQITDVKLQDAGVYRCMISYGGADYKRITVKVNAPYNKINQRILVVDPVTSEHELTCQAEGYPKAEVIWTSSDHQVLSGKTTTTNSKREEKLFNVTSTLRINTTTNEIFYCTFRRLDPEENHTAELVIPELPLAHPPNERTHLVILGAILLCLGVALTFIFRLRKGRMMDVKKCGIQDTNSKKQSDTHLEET

In this test the target is human PD-L1, overexpressed in cells for co-immunoprecipitation (human) (UniProt Q9NZQ7). The test can be described thus: co-IP; co-IP with mouse Pd-l1, deletion mutants and PD-L2 (Figure 4E-H); cells, tags and antibodies not stated.

Results are given in words; binding and its absence hold for the method and conditions named. Binding seen in cells or lysates may run through a third protein. Some results given as binding are weak or reduced against the parent protein; the word gives no strength.

B1: VSTM2A IgV domain (Δ144-240) (domain or fragment, UniProt Q8TAG5 25-143)
chain: SQAKFTEFPRNVTATEGQNVEMSCAFQSGSASVYLEIQWWFLRGPEDLDPGAEGAGAQVELLPDRDPDSDGTKISTVKVQGNDISHKLQISKVRKKDEGLYECRVTDANYGELQEHKAQ
Turning to B1, the binding entry is “binds”.
